Measured values: patent US20050220757A1
No constants are given. Whether binding was seen depends on the method and setting. Some binding calls cover weakened binding; strength is not graded here.

Sequences of proteins named here, by UniProt entry; tags and fusion partners are left off. A change or cut given only in a name is not applied to a line headed by its entry. Residues count along the entry.
UniProt P13501, residues 24-91: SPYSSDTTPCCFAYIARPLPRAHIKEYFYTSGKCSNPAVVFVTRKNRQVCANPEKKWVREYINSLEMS

What follows are substances tested against T1, CCR1 (UniProt P32246) (assay: equilibrium competition SPA, [125I]-MIP-1α tracer, CHO membranes expressing CCR1).
T1 sequence (looked up): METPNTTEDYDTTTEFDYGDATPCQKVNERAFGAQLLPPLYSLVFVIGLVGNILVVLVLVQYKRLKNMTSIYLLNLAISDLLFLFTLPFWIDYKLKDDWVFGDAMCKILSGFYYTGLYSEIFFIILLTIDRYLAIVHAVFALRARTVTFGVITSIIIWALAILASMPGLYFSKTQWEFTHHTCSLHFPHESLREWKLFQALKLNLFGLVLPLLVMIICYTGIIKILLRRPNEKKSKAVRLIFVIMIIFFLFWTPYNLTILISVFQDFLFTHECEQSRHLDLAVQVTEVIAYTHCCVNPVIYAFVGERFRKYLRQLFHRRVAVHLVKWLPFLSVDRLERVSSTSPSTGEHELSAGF

binding, binds:
RANTES (from UniProt P13501 24-91) (ligand), RANTES G32D (from UniProt P13501 24-91) (ligand), RANTES G32K (from UniProt P13501 24-91) (ligand), RANTES G32N (from UniProt P13501 24-91) (ligand), RANTES G32P (from UniProt P13501 24-91) (ligand)
